Measurements reported in US20240350586A1.
Results are given in words; binding and its absence hold for the method and conditions named. For part of these data: Binding seen in cells or lysates may run through a third protein. Some results given as binding are weak or reduced against the parent protein; the word gives no strength. For part of these data: Where a sequence is shown, tags or fusion partners need not be part of it.

Chains of the proteins cited; added tags and fusions are not shown. Lines headed by an entry give the natural chain unless they say otherwise; changes in a name come on top. Residues count along the entry.
UniProt Q9BXW4: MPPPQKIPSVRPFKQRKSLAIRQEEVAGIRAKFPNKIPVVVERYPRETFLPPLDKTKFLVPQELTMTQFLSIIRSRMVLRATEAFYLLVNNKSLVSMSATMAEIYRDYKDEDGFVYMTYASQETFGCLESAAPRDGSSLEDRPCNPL
T7-LC3C (expressed in cells): residues 1-126 of Q9BXW4

Legend:
[1] = target: His-T7-LC3C (purified protein) (UniProt Q9BXW4); assay: in vitro pull-down of purified GST-CCT2s and His-T7-LC3C
[2] = target: His-T7-LC3C (purified protein) (UniProt Q9BXW4); assay: pull-down of gel-filtration fraction F17 with His-T7-LC3C on Ni sepharose
[3] = target: T7-LC3C (expressed in cells) (UniProt Q9BXW4); assay: Duolink PLA

B1: GST-HA-CCT2 (purified, wild type) (protein, not shown: a dimerising Fc or GST)
chain: ASLSLAPVNIFKAGADEERAETARLTSFIGAIAIGDLVKSTLGPKGMDKILLSSGRDASLMVTNDGATILKNIGVDNPAAKVLVDMSRVQDDEVGDGTTSVTVLAAELLREAESLIAKKIHPQTIIAGWREATKAAREALLSSAVDHGSDEVKFRQDLMNIAGTTLSSKLLTHHKDHFTKLAVEAVLRLKGSGNLEAIHIIKKLGGSLADSYLDEGFLLDKKIGVNQPKRIENAKILIANTGMDTDKIKIFGSRVRVDSTAKVAEIEHAEKEKMKEKVERILKHGINCFINRQLIYNYPEQLFGAAGVMAIEHADFAGVERLALVTGGEIASTFDHPELVKLGSCKLIEEVMIGEDKLIHFSGVALGEACTIVLRGATQQILDEAERSLHDALCVLAQTVKDSRTVYGGGCSEMLMAHAVTQLANRTPGKEAVAMESYAKALRMLPTIIADNAGYDSADLVAQLRAAHSEGNTTAGLDMREGTIGDMAILGITESFQVKRQVLLSAAEAAEVILRVDNIIKAAPRKRVPDHHPC
- binding [1]: binds

B2: CCT2 in the monomer fraction (F17) of gel-filtered HEK293T cell lysate (protein)
chain: B1 chain
- binding [2]: binds

B3: V5-CCT2 (protein)
chain: GKPIPNPLLGLDSTASLSLAPVNIFKAGADEERAETARLTSFIGAIAIGDLVKSTLGPKGMDKILLSSGRDASLMVTNDGATILKNIGVDNPAAKVLVDMSRVQDDEVGDGTTSVTVLAAELLREAESLIAKKIHPQTIIAGWREATKAAREALLSSAVDHGSDEVKFRQDLMNIAGTTLSSKLLTHHKDHFTKLAVEAVLRLKGSGNLEAIHIIKKLGGSLADSYLDEGFLLDKKIGVNQPKRIENAKILIANTGMDTDKIKIFGSRVRVDSTAKVAEIEHAEKEKMKEKVERILKHGINCFINRQLIYNYPEQLFGAAGVMAIEHADFAGVERLALVTGGEIASTFDHPELVKLGSCKLIEEVMIGEDKLIHFSGVALGEACTIVLRGATQQILDEAERSLHDALCVLAQTVKDSRTVYGGGCSEMLMAHAVTQLANRTPGKEAVAMESYAKALRMLPTIIADNAGYDSADLVAQLRAAHSEGNTTAGLDMREGTIGDMAILGITESFQVKRQVLLSAAEAAEVILRVDNIIKAAPRKRVPDHHPC
- binding [3]: binds
